Data from publication PMC13246907.
These are yes or no findings as the source states them, for the method shown. Binding seen in cells or lysates may run through a third protein. Some results given as binding are weak or reduced against the parent protein; the word gives no strength. Each block holds one molecule with its values, some of them ahead of it.

Protein sequences, listed by entry. Tags and fused reporters are not part of them. Lines headed by an entry give the natural chain unless they say otherwise; changes in a name come on top. Chains listed by the source or under a name are the forms on record and can include a tag or linker.
UniProt Q92560: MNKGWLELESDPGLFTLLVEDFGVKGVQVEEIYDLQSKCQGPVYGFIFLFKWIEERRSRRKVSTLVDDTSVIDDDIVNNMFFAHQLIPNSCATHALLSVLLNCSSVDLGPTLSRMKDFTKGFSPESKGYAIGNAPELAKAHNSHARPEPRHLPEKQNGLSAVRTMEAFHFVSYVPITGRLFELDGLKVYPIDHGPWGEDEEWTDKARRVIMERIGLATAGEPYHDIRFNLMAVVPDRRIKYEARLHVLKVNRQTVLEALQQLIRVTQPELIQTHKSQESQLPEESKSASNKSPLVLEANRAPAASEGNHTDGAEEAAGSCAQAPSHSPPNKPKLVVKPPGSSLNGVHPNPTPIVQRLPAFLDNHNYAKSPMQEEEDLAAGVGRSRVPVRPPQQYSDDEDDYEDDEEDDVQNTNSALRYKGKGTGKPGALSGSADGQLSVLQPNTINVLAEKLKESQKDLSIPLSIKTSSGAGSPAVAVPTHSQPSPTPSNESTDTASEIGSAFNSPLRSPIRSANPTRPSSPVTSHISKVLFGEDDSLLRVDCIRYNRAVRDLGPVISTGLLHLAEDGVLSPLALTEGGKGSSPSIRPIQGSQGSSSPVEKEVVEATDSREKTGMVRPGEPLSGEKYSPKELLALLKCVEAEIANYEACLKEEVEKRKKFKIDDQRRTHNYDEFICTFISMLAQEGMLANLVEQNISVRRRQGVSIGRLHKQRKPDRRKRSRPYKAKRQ
Flag-BAP1 ΔASXL (removal of amino acids 666 to 669) (Q92560, form named): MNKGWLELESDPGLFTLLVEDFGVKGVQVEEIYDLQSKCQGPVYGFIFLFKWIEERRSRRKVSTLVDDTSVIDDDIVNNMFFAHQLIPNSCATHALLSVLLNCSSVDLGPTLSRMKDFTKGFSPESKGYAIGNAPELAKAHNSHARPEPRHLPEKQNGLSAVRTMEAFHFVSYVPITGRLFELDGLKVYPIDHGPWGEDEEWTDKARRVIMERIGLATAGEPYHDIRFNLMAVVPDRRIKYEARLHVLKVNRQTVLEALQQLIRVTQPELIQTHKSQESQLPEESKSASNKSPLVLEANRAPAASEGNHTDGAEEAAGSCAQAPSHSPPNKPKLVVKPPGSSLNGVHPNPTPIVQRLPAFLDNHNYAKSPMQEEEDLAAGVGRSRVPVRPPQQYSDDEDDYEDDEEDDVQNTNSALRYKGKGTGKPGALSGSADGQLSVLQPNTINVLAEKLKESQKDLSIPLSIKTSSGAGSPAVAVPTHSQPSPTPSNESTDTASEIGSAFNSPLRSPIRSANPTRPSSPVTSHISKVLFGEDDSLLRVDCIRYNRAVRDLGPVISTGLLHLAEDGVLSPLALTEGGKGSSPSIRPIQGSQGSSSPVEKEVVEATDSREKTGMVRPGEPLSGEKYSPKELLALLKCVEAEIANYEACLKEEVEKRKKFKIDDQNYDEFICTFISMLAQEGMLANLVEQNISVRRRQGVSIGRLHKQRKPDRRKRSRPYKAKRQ
UniProt Q8IXJ9: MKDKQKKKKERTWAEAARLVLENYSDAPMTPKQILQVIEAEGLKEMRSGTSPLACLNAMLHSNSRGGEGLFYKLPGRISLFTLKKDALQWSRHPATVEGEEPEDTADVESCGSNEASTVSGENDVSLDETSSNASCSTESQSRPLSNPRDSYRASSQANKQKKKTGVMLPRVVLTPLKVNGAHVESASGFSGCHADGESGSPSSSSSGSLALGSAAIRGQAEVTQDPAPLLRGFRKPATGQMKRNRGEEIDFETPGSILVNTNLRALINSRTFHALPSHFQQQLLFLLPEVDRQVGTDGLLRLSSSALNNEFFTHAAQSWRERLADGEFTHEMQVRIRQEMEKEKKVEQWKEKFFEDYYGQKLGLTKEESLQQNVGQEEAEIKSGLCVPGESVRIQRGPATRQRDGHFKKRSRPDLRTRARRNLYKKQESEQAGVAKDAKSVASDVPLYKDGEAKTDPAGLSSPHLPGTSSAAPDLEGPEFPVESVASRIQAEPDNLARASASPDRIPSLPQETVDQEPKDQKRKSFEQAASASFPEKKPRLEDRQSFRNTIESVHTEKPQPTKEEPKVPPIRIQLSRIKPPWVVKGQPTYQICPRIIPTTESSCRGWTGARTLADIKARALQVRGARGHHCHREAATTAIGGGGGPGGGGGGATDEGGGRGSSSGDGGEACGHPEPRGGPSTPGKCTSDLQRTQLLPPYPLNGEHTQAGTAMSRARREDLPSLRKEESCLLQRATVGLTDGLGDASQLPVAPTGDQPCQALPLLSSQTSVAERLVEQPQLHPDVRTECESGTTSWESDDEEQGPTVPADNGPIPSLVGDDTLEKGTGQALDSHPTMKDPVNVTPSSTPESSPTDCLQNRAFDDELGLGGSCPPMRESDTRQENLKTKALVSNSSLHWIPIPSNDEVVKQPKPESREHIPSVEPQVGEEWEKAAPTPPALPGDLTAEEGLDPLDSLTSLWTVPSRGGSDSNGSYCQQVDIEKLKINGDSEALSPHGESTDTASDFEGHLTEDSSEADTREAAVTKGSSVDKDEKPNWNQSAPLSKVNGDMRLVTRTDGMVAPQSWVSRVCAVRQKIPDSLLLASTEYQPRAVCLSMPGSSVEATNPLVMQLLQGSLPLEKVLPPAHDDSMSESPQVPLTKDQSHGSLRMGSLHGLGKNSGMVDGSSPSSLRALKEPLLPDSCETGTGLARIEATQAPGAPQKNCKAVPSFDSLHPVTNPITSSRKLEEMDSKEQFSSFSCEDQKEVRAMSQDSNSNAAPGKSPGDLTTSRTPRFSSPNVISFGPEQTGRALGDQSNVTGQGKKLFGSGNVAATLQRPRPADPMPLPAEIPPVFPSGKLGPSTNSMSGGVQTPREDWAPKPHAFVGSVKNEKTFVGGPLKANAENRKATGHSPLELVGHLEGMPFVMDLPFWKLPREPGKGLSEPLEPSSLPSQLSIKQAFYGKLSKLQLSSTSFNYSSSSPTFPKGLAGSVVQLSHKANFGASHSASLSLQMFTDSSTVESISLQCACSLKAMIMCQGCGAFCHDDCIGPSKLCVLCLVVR

How the values were obtained:
[1] = target: Flag-BAP1 (wild-type BRCA1-associated protein 1) (UniProt Q92560); assay: co-IP; cell lysates incubated with Anti-Flag/Myc Magnetic Beads overnight at 4 °C, beads washed three times with lysis buffer, eluate analysed by SDS-PAGE and Western blotting; BAP1 pulled down
[2] = target: Flag-BAP1 ΔASXL (removal of amino acids 666 to 669) (UniProt Q92560); assay: as above

binding [1]: binds | binding [2]: no binding
Molecule: ASXL1 (additional sex combs-like protein 1) (from UniProt Q8IXJ9 1-1541)

binding [1]: binds | binding [2]: no binding
B1: lysine-specific demethylase 1B (KDM1B) (protein, UniProt Q8NB78 1-822)
chain: MATPRGRTKKKASFDHSPDSLPLRSSGRQAKKKATETTDEDEDGGSEKKYRKCEKAGCTATCPVCFASASERCAKNGYTSRWYHLSCGEHFCNECFDHYYRSHKDGYDKYTTWKKIWTSNGKTEPSPKAFMADQQLPYWVQCTKPECRKWRQLTKEIQLTPQIAKTYRCGMKPNTAIKPETSDHCSLPEDLRVLEVSNHWWYSMLILPPLLKDSVAAPLLSAYYPDCVGMSPSCTSTNRAAATGNASPGKLEHSKAALSVHVPGMNRYFQPFYQPNECGKALCVRPDVMELDELYEFPEYSRDPTMYLALRNLILALWYTNCKEALTPQKCIPHIIVRGLVRIRCVQEVERILYFMTRKGLINTGVLSVGADQYLLPKDYHNKSVIIIGAGPAGLAAARQLHNFGIKVTVLEAKDRIGGRVWDDKSFKGVTVGRGAQIVNGCINNPVALMCEQLGISMHKFGERCDLIQEGGRITDPTIDKRMDFHFNALLDVVSEWRKDKTQLQDVPLGEKIEEIYKAFIKESGIQFSELEGQVLQFHLSNLEYACGSNLHQVSARSWDHNEFFAQFAGDHTLLTPGYSVIIEKLAEGLDIQLKSPVQCIDYSGDEVQVTTTDGTGYSAQKVLVTVPLALLQKGAIQFNPPLSEKKMKAINSLGAGIIEKIALQFPYRFWDSKVQGADFFGHVPPSASKRGLFAVFYDMDPQKKHSVLMSVIAGEAVASVRTLDDKQVLQQCMATLRELFKEQEVPDPTKYFVTRWSTDPWIQMAYSFVKTGGSGEAYDIIAEDIQGTVFFAGEATNRHFPQTVTGAYLSGVREASKIAAF
